Assay results: patent US10092493B2, “Composition of skin external application for anti-aging” (AMOREPACIFIC CORPORATION, priority 2005, dated 2018)
At least one compound was matched to its structure with a doubt left.

Biological target: T1, PPAR-α (Peroxisome Proliferator Activated Receptor-alpha) (Homo sapiens, UniProt Q07869)
T1 construct: expressed in transfected cells; host or cells: CV-1 monkey kidney epithelial cells (ATCC CCL 70)
T1 sequence (Q07869 1-468): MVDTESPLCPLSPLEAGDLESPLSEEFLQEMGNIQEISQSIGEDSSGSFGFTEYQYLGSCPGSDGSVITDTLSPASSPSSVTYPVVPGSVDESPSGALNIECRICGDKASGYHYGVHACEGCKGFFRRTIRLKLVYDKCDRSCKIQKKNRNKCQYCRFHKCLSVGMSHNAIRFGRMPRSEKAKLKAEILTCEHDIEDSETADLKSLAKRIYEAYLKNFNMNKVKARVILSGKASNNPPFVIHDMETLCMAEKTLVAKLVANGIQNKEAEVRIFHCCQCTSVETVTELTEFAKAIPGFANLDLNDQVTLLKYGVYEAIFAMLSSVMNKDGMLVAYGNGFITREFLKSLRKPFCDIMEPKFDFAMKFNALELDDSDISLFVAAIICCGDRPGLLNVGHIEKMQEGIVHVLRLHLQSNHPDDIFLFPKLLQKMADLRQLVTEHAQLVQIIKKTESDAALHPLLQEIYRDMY
Experiment: Activation of PPAR-α, luciferase reporter in CV-1 cells
Format: cell-based
Conditions: 24 hours, negative control and non-treated group = 1.0
Experimental: Monkey kidney epithelial cell line CV-1 (ATCC CCL 70) was subcultured in a DMEM medium containing 10% fetal bovine serum treated with charcol/dextran, which was a phenol red-free medium to remove the effect by estrogen of phenol red.
CV-1 cells were distributed in a 24-well plate type incubator at a concentration of 5×10^4. After 24 hours cultivation, the 3 different plasmids were transient transfected. After 24 hours cultivation, the plate was washed with 1×PBS (Phosphate Buffered Saline) and treated with ligand candidates at various concentrations. After 24 hours cultivation, the plate was washed with 1×PBS and the cells were lyzed with 1×PLB (Passive Lysis Buffer) and measured for luciferase activity using Dual-Luciferase® Reporter Assay System kit.

**Q.** With `C[C@@H]1O[C@@H](OC[C@H]2O[C@@H](Oc3c(-c4ccc(O)c(O)c4)oc4cc(O)cc(O)c4c3=O)[C@H](O)[C@@H](O)[C@@H]2O)[C@H](O)[C@H](O)[C@H]1O` [Rutin hydrate] as the molecule, how does the PPAR-α activity (10 μM) read?
**A.** 1.6

**Q.** And the PPAR-α activity (100 μM)?
**A.** 1.3
